PubChem BioAssay AID652272 | Drosophila RNAi Screening Center – 2013
Aim: 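Genome-wide knock-down search for components of Hedgehog signalling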 (primary screen). Cell system: Drosophila clone 8 (Cl8) cells. Knock-down reagent: long dsRNA against Drosophila genes. Detection: 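Plate reader light from a firefly reporter under a ptc promoter fragment that responds to Hedgehog, with Renilla light as transfection reference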. Reading the numbers: firefly Hh reporter signal: higher = more ptc reporter light; Renilla reference signal: higher = more Renilla control light. Active means: 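Hit when the z-score averaged over two replicates is under -2 or over +3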. Meaning of the calls: active = hit: reporter lowered or raised; inactive = not a hit.
In all, the deposit lists about 21,000 reagents; below is a random part of those with a known target gene and a result. Over the whole deposit, 503 (2.4%) were called active. 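Raw plate light values, not normalised; calls rest on replicate z-scores that were not deposited; hits include reporter decreases as well as increases.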 Reagents against one gene are numbered here. The record does not give: the amount of reagent, the time to read-out.

nudC #1
- firefly Hh reporter signal, replicate 1: 1.22e5
- Renilla reference signal, replicate 1: 2280
- Renilla reference signal, replicate 2: 3453
- Outcome: inactive

nudC #2
- firefly Hh reporter signal, replicate 1: 1.22e5
- Renilla reference signal, replicate 1: 2553
- Renilla reference signal, replicate 2: 3753
- Outcome: inactive

CG6788
- firefly Hh reporter signal, replicate 1: 60260
- firefly Hh reporter signal, replicate 2: 1.65e5
- Renilla reference signal, replicate 1: 2256
- Renilla reference signal, replicate 2: 7928
- Outcome: inactive

CG14720
- firefly Hh reporter signal, replicate 1: 94198
- firefly Hh reporter signal, replicate 2: 1.04e5
- Renilla reference signal, replicate 1: 2214
- Renilla reference signal, replicate 2: 2908
- Outcome: inactive

CG8008
- firefly Hh reporter signal, replicate 1: 63385
- firefly Hh reporter signal, replicate 2: 58573
- Renilla reference signal, replicate 1: 3008
- Renilla reference signal, replicate 2: 1948
- Outcome: inactive

cwo
- firefly Hh reporter signal, replicate 1: 58672
- firefly Hh reporter signal, replicate 2: 62995
- Renilla reference signal, replicate 1: 2737
- Renilla reference signal, replicate 2: 2402
- Outcome: inactive

CG7878
- firefly Hh reporter signal, replicate 1: 87954
- firefly Hh reporter signal, replicate 2: 1.44e5
- Renilla reference signal, replicate 1: 3024
- Renilla reference signal, replicate 2: 2950
- Outcome: inactive

Klp54D
- firefly Hh reporter signal, replicate 1: 65031
- firefly Hh reporter signal, replicate 2: 43136
- Renilla reference signal, replicate 1: 1746
- Renilla reference signal, replicate 2: 3037
- Outcome: inactive

Dref
- firefly Hh reporter signal, replicate 1: 70016
- firefly Hh reporter signal, replicate 2: 39536
- Renilla reference signal, replicate 1: 1346
- Renilla reference signal, replicate 2: 944
- Outcome: active

ssp5
- firefly Hh reporter signal, replicate 1: 1.32e5
- firefly Hh reporter signal, replicate 2: 1.13e5
- Renilla reference signal, replicate 1: 5440
- Renilla reference signal, replicate 2: 4480
- Outcome: inactive

CG34012
- firefly Hh reporter signal, replicate 1: 94400
- firefly Hh reporter signal, replicate 2: 1.26e5
- Renilla reference signal, replicate 1: 3654
- Renilla reference signal, replicate 2: 8381
- Outcome: active

SmE
- firefly Hh reporter signal, replicate 1: 39264
- firefly Hh reporter signal, replicate 2: 34945
- Renilla reference signal, replicate 1: 1778
- Renilla reference signal, replicate 2: 3991
- Outcome: active
